No constants are given. Whether binding was seen depends on the method and setting. Some results given as binding are weak or reduced against the parent protein; the word gives no strength.
Assays:
[1] = target: human Ephrin type-A receptor 2 (EphA2) on EphA2+ tumor cells (human) (UniProt P29317); test: 3D spheroid assay, fluorescent liposomes, IncuCyte ZOOM imaging
[2] = target: human Ephrin type-A receptor 2 (EphA2) on EphA2+ tumor cells (human) (UniProt P29317); test: 3D spheroid assay, fluorescent liposomes at 25 uM phospholipid, IncuCyte ZOOM imaging
[3] = target: human Ephrin type-A receptor 2 (EphA2) on EphA2+ tumor cells (human) (UniProt P29317); test: 3D spheroid assay, fluorescent liposomes, live imaging

By UniProt entry, the sequences of proteins in these tests, tags left out. Residues count along the entry.
UniProt P29317, residues 24-976: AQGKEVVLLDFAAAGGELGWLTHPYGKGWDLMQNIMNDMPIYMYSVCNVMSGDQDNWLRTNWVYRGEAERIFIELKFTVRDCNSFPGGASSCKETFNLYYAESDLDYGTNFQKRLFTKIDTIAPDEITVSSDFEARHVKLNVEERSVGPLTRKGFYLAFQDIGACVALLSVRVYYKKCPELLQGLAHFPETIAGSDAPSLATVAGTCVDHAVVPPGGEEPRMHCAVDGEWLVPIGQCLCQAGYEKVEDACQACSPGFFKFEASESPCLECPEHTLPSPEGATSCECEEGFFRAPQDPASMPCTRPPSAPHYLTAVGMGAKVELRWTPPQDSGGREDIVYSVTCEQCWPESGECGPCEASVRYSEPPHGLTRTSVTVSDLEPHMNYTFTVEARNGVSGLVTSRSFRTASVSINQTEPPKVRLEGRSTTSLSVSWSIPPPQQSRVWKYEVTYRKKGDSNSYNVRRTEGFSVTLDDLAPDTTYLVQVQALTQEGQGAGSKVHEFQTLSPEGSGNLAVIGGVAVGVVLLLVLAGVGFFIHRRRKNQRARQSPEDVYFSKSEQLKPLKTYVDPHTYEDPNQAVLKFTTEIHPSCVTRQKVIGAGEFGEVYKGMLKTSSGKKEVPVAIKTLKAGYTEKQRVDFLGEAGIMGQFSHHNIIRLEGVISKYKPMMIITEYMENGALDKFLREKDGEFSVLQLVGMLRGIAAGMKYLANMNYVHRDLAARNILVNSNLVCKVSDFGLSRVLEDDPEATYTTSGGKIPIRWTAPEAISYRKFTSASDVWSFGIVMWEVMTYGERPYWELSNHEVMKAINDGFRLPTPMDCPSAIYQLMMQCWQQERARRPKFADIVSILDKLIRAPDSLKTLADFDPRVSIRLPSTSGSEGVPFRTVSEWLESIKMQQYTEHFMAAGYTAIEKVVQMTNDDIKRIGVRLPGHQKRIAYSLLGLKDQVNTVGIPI

Measured: binding

B1: 46scFv-ILs: EphA2-targeted immunoliposome bearing the anti-EphA2 scFv of SEQ ID NO:46 (scFv3) conjugated to PEG-DSPE (scFv)
scFv: QVQLVQSGGGLVQPGGSLRLSCAASGFTFSSYAMHWVRQAPGKGLEWVTVISPDGHNTYYADSVKGRFTISRDNSKNTLYLQMNSLRAEDTAVYYCARASVGATGPFDIWGQGTLVTVSSASTGGGGSGGGGSGGGGSGGGGSSSELTQPPSVSVAPGQTVTITCQGDSLRSYYASWYQQKPGTAPKLLIYGENNRPSGVPDRFSGSSSGTSASLTITGAQAEDEADYYCNSRDSSGTHLTVFGGGTKLTVLGGGSGGC
binds: all assays above
